Results published in PubChem BioAssay AID540256 (National Center for Advancing Translational Sciences (NCATS), 2011).
Screen size: about 300,000 compounds; about 3,700 (1.2%) were called active. The shares of active, inactive and inconclusive entries below differ from those in the screen. Calls come from the whole dose curve; tested in HEK293 cells. Potencies of inconclusive entries are doubtful fits and often do not repeat.

Assay: qHTS for Inhibitors of binding or entry into cells for Lassa Virus; note: nearly all actives have a fitted effect of over 50% in size
Conditions: Lassa virus pseudotype entry inhibition, cell reporter; activity change, negative = inhibition: at 37.9 µM (top of the series) unless noted
% is set by controls: 0 for no effect and ±100 for the full control effect; potency is the fitted concentration of half-maximal effect.

SMILES	Potency	activity change, negative = inhibition
Cc1cccc(NC(=S)NC(=O)CCc2ccccc2)c1	inconclusive: 35.5 µM [inhibitor, single point]	–
O=S1(=O)c2ccc(Br)cc2N2CCC[C@@H]2CN1Cc1ccc(Cl)cc1	inconclusive: 0.887 µM [activator, full curve, poor fit]	–
O=C(OCc1ccccn1)C1CCN(C(=O)c2ccc(Cl)cc2)CC1	–	inactive: -21.7%
COc1ccc(-c2cc(-c3ccc(F)cc3)nc(N3CCN(C)CC3)n2)cc1	inconclusive: 28.2 µM [activator, partial curve, poor fit]	–
Cc1cccc(C)c1NC(=O)CNC(=O)C(Cc1ccccc1)NC(=O)c1ccccc1 (configuration not stated)	–	inactive: -2.49%
COc1ccc(-c2csc(NC(=O)CSCC(=O)Nc3cc(C)on3)n2)cc1OC	inconclusive: 35.5 µM [inhibitor, single point]	–
Cc1ccc(NC(=O)CN2C(=O)NC(C)(CC(C)C)C2=O)cc1F (configuration not stated)	–	inactive: 17.2% [at 46.1 µM]
O=C(CN1C(=O)C2CCCCN2c2ccc(C(=O)N3CCCC3)cc21)NCc1cccc(F)c1 (configuration not stated)	–	inactive: 6.58% [at 46.1 µM]
CCOc1ccccc1NC(=O)CN1C(=O)C(=O)N(Cc2ccco2)C1=O	inconclusive: 35.5 µM [inhibitor, single point]	–
COc1ccc(OC)c(C2C(C#N)=C(N)Oc3c2c(C)nn3-c2ccc(C)cc2)c1 (configuration not stated)	–	inactive: -0.134%
Cc1ccccc1CNC(=O)C(=O)NCC(c1cccs1)S(=O)(=O)c1ccc(Cl)cc1 (configuration not stated)	inconclusive: 22.4 µM [inhibitor, single point]	–
CCN(CC)CCOc1ccc2nc(N(C)C)sc2c1	inconclusive: 29.1 µM [activator, single point]	–
CN=c1sc(C(=O)Nc2ccccc2)c(C)n1C	inconclusive: 35.5 µM [activator, single point]	–
COc1ccc(-c2nc(NC(=O)C3CCN(c4nc5ccccc5o4)CC3)sc2C)cc1	inconclusive: 29.1 µM [inhibitor, single point]	–
O=C(Nc1ccc(Br)cc1)c1ccco1	–	inactive: 3.04%
Cc1cc(C)nc(NC(=O)c2ccc(Cl)cc2[N+](=O)[O-])c1	inconclusive: 2.06 µM [inhibitor, partial curve, poor fit]	–
NCCc1ccc(O)cc1	inconclusive: 0.0291 µM [inhibitor, full curve, poor fit]	–
CC1CCCC(NCC(O)COC(c2ccc(F)cc2)c2ccc(F)cc2)C1C (configuration not stated)	inconclusive: 35.5 µM [inhibitor, single point]	–
O=C(Cn1c(=O)c2cccn2c2ccc(F)cc21)N1CCN(c2ccccc2)CC1	–	inactive: 1.56% [at 46.1 µM]
Cc1ccc(SCc2[nH]nc3c2C2(C(=O)N(C)c4ccccc42)C(C#N)=C(N)O3)cc1 (configuration not stated)	inconclusive: 12.6 µM [inhibitor, partial curve, poor fit]	–
c1ccc(C(NCc2cccnc2)(c2ccccc2)c2ccccc2)cc1	active: 8.2 µM	–
Nc1c(C(=O)c2ccccc2)sc2snc(SCC(=O)c3ccccc3)c12	inconclusive: 1.26 µM [inhibitor, partial curve, poor fit]	–
C[C@@H]1N[S+](=O)([O-])c2ccc(F)cc2O[C@H]1c1ccccc1	inconclusive: 0.0031 µM [activator, full curve, poor fit]	–
CCOC(=O)Nc1ccc2c(c1)N(C(=O)CCN(CC)CC)c1ccccc1S2=O (configuration not stated)	active: 17.8 µM	–

Single records (already shown). Order of values: Potency	activity change, negative = inhibition
Nc1c(C(=O)c2ccccc2)sc2snc(SCC(=O)c3ccccc3)c12 is listed as inconclusive: 1.26 µM [inhibitor, partial curve, poor fit]	–
Cc1cccc(NC(=S)NC(=O)CCc2ccccc2)c1 is listed as inconclusive: 35.5 µM [inhibitor, single point]	–

(more compounds)

SMILES	Potency	activity change, negative = inhibition
COc1ccc(NC(=O)COC(=O)CC2Sc3ccccc3NC2=O)cc1 (configuration not stated)	inconclusive: 5.62 µM [inhibitor, single point]	–
O=C(NCc1ccco1)c1ccc2c(c1)N(Cc1ccc(Cl)cc1)CCS2	inconclusive: 35.5 µM [inhibitor, single point]	–
OCCN(CCO)CC(O)CN(c1ccccc1)c1ccccc1 (configuration not stated)	–	inconclusive: 2.96% [activator]
Nc1ccn(C2OC(COP(=O)(O)O)C(O)C2O)c(=O)n1 (configuration not stated)	–	inactive: -14.9% [at 46.1 µM]
COc1cc(NC(=S)N2CCN(S(=O)(=O)c3ccc(F)cc3)CC2)cc(OC)c1	inconclusive: 5.62 µM [activator, single point]	–
Cc1cccc(N2CCN(Cc3nnc(-c4ccc5c(c4)OCO5)o3)CC2)c1C	–	inactive: -12.8% [at 46.1 µM]
c1ccc(-c2nnc(-c3ccccn3)s2)nc1	inconclusive: 0.631 µM [inhibitor, full curve, poor fit]	–
O=C(C1CC1)N1c2ccccc2Sc2ccccc21	inconclusive: 8.91 µM [inhibitor, partial curve, poor fit]	–
Cc1cccc(C#Cc2ccccc2)n1	inconclusive: 1.46 µM [activator, full curve]	–
COc1ccc(/C=C2\CCCC3C2=NN(C(=O)COC(=O)CNC(=O)c2ccccc2)C3c2ccc(OC)cc2)cc1 (configuration not stated)	inconclusive: 20.6 µM [inhibitor, partial curve, poor fit]	–
O=C(C1CCCO1)N1CCN(C(=S)Nc2ccc(Cl)cc2Cl)CC1 (configuration not stated)	inconclusive: 35.5 µM [inhibitor, partial curve, poor fit]	–
COc1ccc2c(c1)c(C(=O)CN1CCN(C)CC1)c(C)n2Cc1ccccc1	–	inactive: -6.17%
CC1Cc2cc(/C(O)=C3\C(=O)C(=O)N(CCN(C)C)C3c3ccccc3F)ccc2O1 (configuration not stated)	–	inactive: 1.15%
Cc1c(Cl)cccc1NC(=O)CSC(C)c1nc2ccccc2c(=O)[nH]1 (configuration not stated)	–	inactive: -0.344%
COc1ccc(N2CCN(C3C(=O)c4ccccc4N3C(C)=O)CC2)cc1 (configuration not stated)	–	inactive: 10.6% [at 46.1 µM]
O=C(COC(=O)C1CCC1)Nc1cccc(Cl)c1	inconclusive: 12.6 µM [activator, single point]	–
COc1ccc(C(=O)COc2ccc(F)cc2)c(O)c1C	inconclusive: 35.5 µM [inhibitor, partial curve, poor fit]	–
Cc1ccc(-c2c3c(=O)n(C)c(=O)n(C)c3cn2-c2cc(C)ccc2O)cc1	inconclusive: 2 µM [inhibitor, full curve]	–
Clc1ccc(C=NNc2ccccn2)c(Cl)c1	inconclusive: 1.58 µM [activator, partial curve, poor fit]	–
CC(C)NC(=O)Cn1nc(N2CCN(c3ccccc3)CC2)ccc1=O	–	inactive: -1.18% [at 46.1 µM]
S=c1[nH]nc(-c2ccc3ccccc3n2)o1	–	inactive: 30.9%
CCOc1cc(C2C(C(=O)OC)=C(C)NC3=C2C(=O)c2ccccc23)c(Br)cc1O (configuration not stated)	inconclusive: 11.2 µM [inhibitor, partial curve, poor fit]	–
O=c1c(=O)n(Cc2c(F)cccc2Cl)ccn1Cc1ccccc1	inconclusive: 35.5 µM [inhibitor, single point]	–
Cc1nn(-c2ccccc2)c(N)c1C(c1ccc(C(C)C)cc1)c1c(C)nn(-c2ccccc2)c1N	inconclusive: 11.6 µM [inhibitor, partial curve, poor fit]	–

SMILES	Potency	activity change, negative = inhibition
CN(C)N=Nc1ccc(S(=O)(=O)NC(=O)Cc2ccccc2)cc1	inconclusive: 31.6 µM [activator, single point]	–
CCCOc1ccc(Cc2c(Cl)nc(SC)nc2N(C)C)cc1	inconclusive: 11.2 µM [inhibitor, single point]	–
COCCN1Cc2cccc(C(=O)Nc3ccc(Cl)cc3Cl)c2C1=O	–	inactive: -1.66% [at 46.1 µM]
C/C(=N\OC(=O)c1ccc(C)cc1)c1sc(C)nc1C	–	inactive: -1.95%
COC(=O)c1ccc(CNC(=O)COC(=O)c2ccc(N(C)C)cc2)cc1	inconclusive: 2.51 µM [inhibitor, full curve]	–
COc1cc(C(=S)N2CCCC2)cc(OC)c1OS(=O)(=O)c1ccc(NC(C)=O)cc1	inconclusive: 3.16 µM [inhibitor, partial curve, poor fit]	–
O=C(CN1CCN(c2ccc(F)cc2)CC1)NC(=O)NCc1ccco1	inconclusive: 20 µM [inhibitor, partial curve, poor fit]	–
O=C(CSc1nc2[nH]c(=O)cc(O)c2s1)Nc1nncs1	–	inactive: -12.6%
CCn1c2ccccc2c2cnc(N=CN(C)C)c(C#N)c21	–	inactive: -8.36%
Cc1ccc(NC(=O)COc2ccc(C(=O)NCCc3ccccc3)cc2)cc1	–	inactive: -22.5% [at 14.3 µM]
Cc1nc(-c2cc(-c3nc(-c4ccc(C(C)(C)C)cc4)no3)no2)cs1	inconclusive: 35.5 µM [activator, single point]	–
COCCCn1c(N)c(C(=O)OC(C)COC)c2nc3ccccc3nc21 (configuration not stated)	–	inactive: -0.197%
Cc1[nH]c2ccccc2c1C(=O)COC(=O)C1CCC1	–	inactive: 11.4% [at 46.1 µM]
O=C1c2cccc3c(Nc4ccccc4Cl)c([N+](=O)[O-])cc(c23)C(=O)N1CCO	inconclusive: 20.6 µM [inhibitor, single point]	–
COc1cccc(-c2cc(C(F)(F)F)n3ncc(C(=O)NCC4CCCO4)c3n2)c1 (configuration not stated)	inconclusive: 5.17 µM [inhibitor, partial curve, poor fit]	–
CC(=O)c1cccc(NC(=O)CN2C(=O)c3cccnc3Oc3ccc(Cl)cc32)c1	inconclusive: 10 µM [inhibitor, partial curve, poor fit]	–
O=C(NC(=S)Nc1ccc2oc(-c3ccncc3)nc2c1)c1ccccc1F	–	inactive: 5.86% [at 46.1 µM]
O=C(COc1ccccc1)Nc1cc(S(=O)(=O)N2CCOCC2)ccc1N1CCCC1	–	inactive: 3.04%
C/C=C/c1ccc(OCCCNCC(C)O)c(OC)c1 (configuration not stated)	–	inactive: -0.842%
COc1cccc(Nc2nc(-c3ccc4c(c3)OCCO4)cs2)c1	inconclusive: 35.5 µM [inhibitor, single point]	–
CCCCCCCn1c(NC(=O)CC)nc2ccccc21	–	inactive: -26.9%
O=C1CC(c2nc(-c3ccccc3)no2)CN1c1ccc2c(c1)OCCO2 (configuration not stated)	–	inactive: 23.8% [at 46.1 µM]
Cc1c(Cl)cccc1-n1ncc(C(=O)Nc2ccc(F)cc2F)c1C1CCN(C(=O)OC(C)(C)C)CC1	–	inactive: 0.233% [at 46.1 µM]
COC(=O)c1c(NC(=O)CSc2nccn2C)sc(C)c1C	–	inactive: 21.8%

Entries shown so far with a nitro group on carbon, in the order listed:
SMILES	Potency	activity change, negative = inhibition
Cc1cc(C)nc(NC(=O)c2ccc(Cl)cc2[N+](=O)[O-])c1	inconclusive: 2.06 µM [inhibitor, partial curve, poor fit]	–
O=C1c2cccc3c(Nc4ccccc4Cl)c([N+](=O)[O-])cc(c23)C(=O)N1CCO	inconclusive: 20.6 µM [inhibitor, single point]	–
